No constants are given. Whether binding was seen depends on the method and setting. Some results given as binding are weak or reduced against the parent protein; the word gives no strength.
Legend:
[1] = molecular target: human TrkB (open reading frame from nm_006180) on HEK293 cells (human) (UniProt Q16620); assay: FACS on HEK293 cells transiently transfected with hTrkB, TAM-163 at […]
[2] = molecular target: human TrkB (open reading frame from nm_006180) on HEK293 cells (human) (UniProt Q16620); assay: FACS on transiently transfected HEK293 cells, FITC-labeled mouse anti-human IgG
[3] = molecular target: human TrkB (open reading frame from nm_006180) on HEK293 cells (human) (UniProt Q16620); assay: FACS on transfected HEK293 cells
[4] = molecular target: human TrkB (open reading frame from nm_006180) on HEK293 cells (human) (UniProt Q16620); assay: FACS on transfected HEK293 cells, 1 µg/ml
[5] = molecular target: human TrkB (open reading frame from nm_006180) on HEK293 cells (human) (UniProt Q16620); assay: cell-based ELISA on transfected HEK293 cells
[6] = molecular target: human TrkB (open reading frame from nm_006180) on HEK293 cells (human) (UniProt Q16620); assay: cell-based ELISA on transfected 293 cells, anti-IgG-HRP, TMB, OD450
[7] = molecular target: human TrkB (open reading frame from nm_006180) on HEK293 cells (human) (UniProt Q16620); assay: cell-based ELISA on HEK293 cells transiently transfected with hTrkB (293-TrkB)
[8] = molecular target: human TrkB (open reading frame from nm_006180) on HEK293 cells (human) (UniProt Q16620); assay: cell-based ELISA on transfected 293 cells

Chains of the proteins cited; added tags and fusions are not shown. Residues count along the entry.
UniProt Q16620, residues 32-822: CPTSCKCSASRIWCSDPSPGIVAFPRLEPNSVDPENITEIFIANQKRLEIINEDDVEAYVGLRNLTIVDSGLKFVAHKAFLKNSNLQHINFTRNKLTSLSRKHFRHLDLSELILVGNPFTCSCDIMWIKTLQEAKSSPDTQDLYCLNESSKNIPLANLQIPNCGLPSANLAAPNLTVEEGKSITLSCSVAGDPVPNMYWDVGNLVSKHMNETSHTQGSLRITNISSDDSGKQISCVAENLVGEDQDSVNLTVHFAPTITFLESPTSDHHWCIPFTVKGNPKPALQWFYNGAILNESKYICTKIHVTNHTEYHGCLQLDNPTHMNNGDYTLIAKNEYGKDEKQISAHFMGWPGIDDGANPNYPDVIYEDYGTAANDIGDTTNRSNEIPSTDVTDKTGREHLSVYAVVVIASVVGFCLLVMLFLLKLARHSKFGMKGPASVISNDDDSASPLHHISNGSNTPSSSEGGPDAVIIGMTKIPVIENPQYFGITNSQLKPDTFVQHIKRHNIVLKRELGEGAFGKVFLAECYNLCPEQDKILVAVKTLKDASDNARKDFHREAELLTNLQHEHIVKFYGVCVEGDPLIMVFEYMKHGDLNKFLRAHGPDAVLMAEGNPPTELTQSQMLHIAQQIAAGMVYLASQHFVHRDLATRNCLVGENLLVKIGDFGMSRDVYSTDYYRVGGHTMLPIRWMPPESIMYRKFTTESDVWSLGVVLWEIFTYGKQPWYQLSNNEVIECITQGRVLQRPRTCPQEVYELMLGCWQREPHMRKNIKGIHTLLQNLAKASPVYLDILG

Measured: binding

B1: TAM-163 (huTOA-1 v1.0/1.4) (antibody, human IgG1, kappa, V domains shown)
VH: EVQLVESGGGLVQPGGSLRLSCAASGYSFTAYFMNWVRQAPGKGLEWVARINPNNGDTFYTQKFKGRFTISRDNAKNSLYLQMNSLRAEDTAVYYCARRDYFGAMDYWGQGTLVTVSS
VL: DIQMTQSPSSLSASVGDRVTITCRASQTISNNLHWYQQKPGKAPKLLIKSASLAISGVPSRFSGSGSGTDFTLTISSLQPEDFATYYCQQSNSWPNTFGGGTKVEIKR
binds: all assays above
